Reference: article PMC8104946
These are yes or no findings as the source states them, for the method shown. In cells and extracts the contact can be indirect. Binding can be weak; no strength is given. Where a sequence is shown, tags or fusion partners need not be part of it.

Target: T1, CTPS-HA (Drosophila) (UniProt Q9VUL1)
T1 sequence: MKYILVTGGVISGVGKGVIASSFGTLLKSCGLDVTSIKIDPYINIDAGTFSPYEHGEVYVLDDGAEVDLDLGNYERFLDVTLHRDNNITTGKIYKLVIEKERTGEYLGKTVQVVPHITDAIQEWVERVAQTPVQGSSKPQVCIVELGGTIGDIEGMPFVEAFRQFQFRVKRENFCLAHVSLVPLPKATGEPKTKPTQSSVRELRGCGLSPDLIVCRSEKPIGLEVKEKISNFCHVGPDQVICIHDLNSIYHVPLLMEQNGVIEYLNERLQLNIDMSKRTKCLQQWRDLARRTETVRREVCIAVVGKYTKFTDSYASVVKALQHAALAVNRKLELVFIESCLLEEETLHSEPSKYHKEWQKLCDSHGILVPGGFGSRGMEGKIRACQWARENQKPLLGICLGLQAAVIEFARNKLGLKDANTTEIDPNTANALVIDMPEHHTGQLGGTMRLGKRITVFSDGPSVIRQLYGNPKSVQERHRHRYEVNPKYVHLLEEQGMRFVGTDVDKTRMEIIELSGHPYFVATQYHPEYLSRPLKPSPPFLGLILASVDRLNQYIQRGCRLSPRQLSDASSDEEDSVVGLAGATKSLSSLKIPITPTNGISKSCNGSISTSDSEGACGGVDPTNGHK
Test: co-IP; S2 cells 24 hours after transfection with CTPS-HA-T2A-Catsup-V5 or CTPS-HA-T2A-Pdcd4-V5; lysate on anti-HA magnetic beads or IgG bound Protein A/G magnetic beads overnight at 4 °C; blot with anti-V5

Pdcd4-V5 (Drosophila)
binding: binds
